The values are deposited in ChEMBL (CHEMBL3988442, “University of Dundee, Small-Polar-MMV Screening Library” (2021)).

By UniProt entry, the sequences of proteins in these tests, tags left out.
UniProt E9BF75, entry or part of it: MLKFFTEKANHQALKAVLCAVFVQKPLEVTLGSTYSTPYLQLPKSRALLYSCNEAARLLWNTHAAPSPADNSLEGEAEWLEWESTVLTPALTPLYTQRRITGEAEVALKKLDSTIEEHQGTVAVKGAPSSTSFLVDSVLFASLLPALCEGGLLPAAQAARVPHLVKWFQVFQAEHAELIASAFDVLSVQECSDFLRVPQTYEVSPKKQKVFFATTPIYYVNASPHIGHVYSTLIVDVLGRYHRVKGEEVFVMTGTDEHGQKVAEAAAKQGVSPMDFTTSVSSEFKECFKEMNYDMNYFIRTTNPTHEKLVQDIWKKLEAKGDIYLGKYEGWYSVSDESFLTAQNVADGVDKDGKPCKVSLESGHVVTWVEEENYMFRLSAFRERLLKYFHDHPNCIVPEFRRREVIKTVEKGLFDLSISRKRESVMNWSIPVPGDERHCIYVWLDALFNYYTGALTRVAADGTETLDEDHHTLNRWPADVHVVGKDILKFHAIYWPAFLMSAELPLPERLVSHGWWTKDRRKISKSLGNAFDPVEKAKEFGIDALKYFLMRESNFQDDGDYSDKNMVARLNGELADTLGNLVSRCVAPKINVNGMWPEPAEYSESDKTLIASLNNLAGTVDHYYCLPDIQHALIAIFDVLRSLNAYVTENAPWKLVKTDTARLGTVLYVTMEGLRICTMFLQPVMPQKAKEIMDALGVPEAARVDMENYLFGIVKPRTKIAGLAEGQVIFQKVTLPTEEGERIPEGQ

Mtb heat-shock: 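Assay on Mycobacterium tuberculosis, filed only as a heat shock assay from Cornell; the read-out is not stated. The concentration is filed as 10 mM, unlikely as a test dose, so the dose is not known. Direction is inferred from retests: higher values go with stronger inhibition. Of about 69,000 compounds tested this way, about 930 (1.4%) reached 50% or more in at least one test.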
Mtb growth Cornell: 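Whole-cell assay for inhibitors of Mycobacterium tuberculosis growth, labelled Cornell in the record; the read-out is not stated. The concentration is filed as 10 mM, unlikely as a test dose, so the dose is not known. The record gives no direction; compounds strong in two other growth screens of this library score well above the rest, so higher reads as stronger inhibition. Of about 53,000 compounds tested this way, about 900 (1.7%) reached 50% or more in at least one test.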
LdMetRS: 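Primary screen of methionyl-tRNA synthetase; the read-out is not stated. Target: Methionyl-tRNA synthetase (putative), Leishmania donovani (UniProt E9BF75). The test concentration is not given. Values are per cent inhibition. About 68,000 compounds were tested under these conditions; 0.035% (about 24) showed 50% or more at least once.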

All values are in %.
How 0% and 100% were set is not recorded. Most values in the screen are low, and negative values occur.
Compounds were drawn at random from those tested, without regard to their results.
A dash means the value is not listed here; it may have been measured.

| SMILES | Mtb heat-shock | Mtb growth Cornell | LdMetRS |
|---|---|---|---|
| `N#Cc1cc(F)ccc1Cn1cnc(C2CCC2)cc1=O` | 23.09% | -7.848% | 10.42% |
| `c1ncn(CC2CN(CCCOc3ccc4c(c3)OCO4)CCO2)n1` (stereo not given) | -9.91% | -3.181% | 14.25% |
| `O=C(c1ccoc1)N1CCC(Nc2cccnn2)CC1` | -6.098% | -97.31% | 8.262% |
| `Cc1nc(C)n(CC2CCCN2Cc2ccn(-c3ccccc3)n2)n1` (stereo not given) | 34.29% | 19.51% | 14.98% |
| `COCc1noc(-c2nn(-c3ccc(F)c(F)c3)c3c2CCC3)n1` | 6.287% | -5.508% | 8.681% |
| `O=C(NCCNc1ncccn1)N1CCN(Cc2cccnc2)CC1` | -6.879% | -19.36% | 9.804% |
| `[H][C@]12CC[C@@]3(N=C(c4ccccc4)NC3=O)[C@@]1([H])CN(C(=O)NC)C2` | -22.05% | -33.59% | - |
| `CCC(c1ccc(F)cc1F)S(=O)(=O)CCO` (stereo not given) | 9.136% | -34.71% | 10.45% |
| `Cc1nc(C)n(CC2CN(CCCc3ccccc3)CCO2)n1` (stereo not given) | -24.69% | -1.733% | 19.06% |
| `NC(=O)c1ccccc1NC(=O)CCN1CCN(CCO)CC1` | -14.36% | 22.58% | 20.4% |
| `O=C(O)C(F)(F)F.[H][C@@]12OCCN(C(=O)c3ccc(C)nc3)[C@@]1([H])CC[C@H]2OC` | -5.792% | -5.319% | - |
| `O=C(c1cc2c(F)cccc2[nH]1)N1CCC(Nc2cccnn2)CC1` | -10.78% | - | 15.64% |
| `N#CC1(C(=O)N2CCCN(c3nccs3)CC2)CCCCC1` | -1.022% | - | -2.186% |
| `CCOC(=O)[C@@H]1[C@@H](O)C(=O)N(C)C12CCN(C(=O)OC)CC2` | -7.213% | -16.14% | 9.459% |
| `CC1CCc2nn(CCNC(=O)Cc3ccccc3F)c(=O)cc2C1` (stereo not given) | -2.708% | -9.834% | 5.319% |
| `CSCCC(=O)N1CCC(Oc2cc(C)ccc2F)(C(=O)O)CC1` | 4.168% | 10.03% | 11.5% |
| `CC(C)NC(=O)N1CC[C@H]2N(C)CC[C@@]2(C(=O)Nc2cccnc2)CC1` | - | - | 12.47% |
| `NS(=O)(=O)c1cnn(-c2ccc(NC(=O)C3CCCCC3)cn2)c1` | 2.557% | 22.09% | 17.37% |
| `COc1ccc(CN2CCN(C(C)=O)CC3(CC(=O)N(C)C3)C2)cc1.O=C(O)C(F)(F)F` (stereo not given) | -11.03% | 15.93% | - |
| `CCc1ccc(CN2CCN(c3cccc(OC)c3)C(=O)C2)nc1` | 13.55% | 10.43% | 16.34% |
| `Fc1cccc(Nc2nc(N3CCCC3)nc3c2CNCC3)c1` | 102.4% | 102.5% | 19.95% |
| `c1cncc(CN2CC(Cc3nccc4cc[nH]c34)C2)c1` | -3.507% | 30.98% | 15.43% |
| `Cc1ccc2[nH]c(=O)c(CNCCCN3CCOCC3)cc2c1` | -2.914% | -6.747% | 16.67% |
| `COc1ccc(CN2CCCCC2CNC(=O)OC(C)(C)C)cc1F` (stereo not given) | -2.316% | 2.516% | 10.78% |
| `Cc1noc(C)c1CCC(=O)N1CCCN(Cc2cccs2)CC1` | -2.857% | - | 19.67% |
| `NC(=O)NC1CCN(Cc2ccc(Br)c(F)c2)CC1` | -150.2% | - | 8.157% |
| `Cn1ccc(C(=O)NCC2(O)CCN(c3cnccn3)C2)n1` (stereo not given) | 2.839% | 9.211% | 16.82% |
| `Cc1nc(C)n(CC2CN(CCCOc3ccccc3C)CCO2)n1` (stereo not given) | -12.29% | - | -2.098% |
| `CCc1[nH]c2c(CNc3cncc(C(=O)N(C)C)n3)cc(C)cc2c1C` | -0.9488% | 13.56% | 32.3% |
| `O=C(NCC1(O)CCSCC1)c1nccc2ccccc12` | -4.31% | 33.4% | 11.56% |
| `CS(=O)(=O)N1CCC(CSc2ccccc2)C1` (stereo not given) | -2.844% | 32% | 10.99% |
| `CC(C)COC(=O)N1CC(=O)N(Cc2ccco2)CC(O)C1` (stereo not given) | 35.22% | -4.127% | 7.397% |
| `Cc1cncc(Oc2ccc(CO)cc2)n1` | 8.955% | -28.83% | 6.469% |
| `Cn1ccnc1C1CCN(C(=O)COCC(F)(F)C(F)F)CC1` | 8.685% | 26.48% | 9.582% |
| `Cc1nn(C)c(C)c1NC(=O)CN1CCc2c(nc(C3CC3)n2C)C1` | -5.215% | - | 0.3623% |
| `O=C(O)C(F)(F)F.[H][C@@]12CN(Cc3ccoc3)CCO[C@]1([H])CN(S(=O)(=O)CCC)C2` | -17.4% | -1.327% | - |
| `CNc1cc2c(nn1)CCN(C(=O)c1cc(F)cc(F)c1)C2` | 2.947% | - | 13.89% |
| `Cn1c(=O)n(C)c2nc(Cl)c(CC(=O)c3ccccc3)n2c1=O` | 2.05% | 12.93% | 10.22% |
| `CC(=O)c1ccc(C(=O)N(C)Cc2nc(-c3ccccn3)no2)s1` | -8.039% | -30.38% | 0% |
| `CC1(C)CN(S(=O)(=O)N2CCCC2)CC1c1ccccc1` (stereo not given) | 0.5105% | -2.696% | 5.025% |
| `CCC(=O)NCC(=O)Nc1c(C)cnn1Cc1cc(F)ccc1F` | -1.537% | 6.861% | 14.66% |
| `CCn1cc(Br)c(C(=O)NCc2ccc(F)cc2)n1` | -22.9% | 0.322% | 4.218% |
| `CC(C)c1nnc2n1CC(CNCc1ccsc1)CC2` (stereo not given) | -8.8% | -5.776% | 4.218% |
| `CCc1cn[nH]c1C1CCCN(C(=O)c2cc(C#N)c(=O)[nH]c2C)C1` (stereo not given) | -5.541% | - | 5.753% |
| `CN1CC(c2cc(O)nc(NCc3cccc(F)c3)n2)CC1=O` (stereo not given) | -9.487% | 15.03% | 17.71% |
| `CC(C)c1noc(CCC(=O)N2CCCC(n3ccnc3)C2)n1` (stereo not given) | 13.47% | - | 2.747% |
| `CN(Cc1ccsc1)C(=O)CN1CCCC(Cn2cncn2)C1` (stereo not given) | 12.58% | - | 23.3% |
| `O=C(Cc1cccc(O)c1)N1CCCC(O)(CN2CCOCC2)CC1` (stereo not given) | 20.84% | -12.07% | 8.861% |
| `Cc1cc(C)cc(NCCC(=O)NCc2cccnc2N(C)C)c1` | -3.682% | -15.22% | 7.062% |
| `CCc1nc(C(=O)N2CCOCC2CC(=O)c2ccccc2)c[nH]1` (stereo not given) | -36.48% | 20.59% | 1.003% |
| `C[C@@H]1CN(CC(C)(C)N2CCCCC2)CC[C@@]1(O)C1CC1` | -2.904% | - | 3.663% |
| `CC(=O)N1CC[C@@H]2O[C@@H](COCc3csc(C)n3)CC[C@@H]21` | - | - | 2.857% |
| `O=C(Nc1nnc(C2CC2)s1)NC1CCOc2ccccc21` (stereo not given) | -13.75% | -14.76% | 0% |
| `CC(C)(C)c1nnc(CN(Cc2cccs2)CC2CCCO2)o1` (stereo not given) | 13.52% | - | 9.946% |
| `O=C(c1n[nH]cc1Cl)N1CCOC(Cc2cccc(C(F)(F)F)c2)C1` (stereo not given) | 13.55% | 6.369% | 8.219% |
| `CC(C)CN1CCn2c(COCc3cccnc3)nnc2C1.O=C(O)C(F)(F)F.O=C(O)C(F)(F)F` | -39.46% | 11.94% | - |
| `O=C(Cn1ccc2ccccc21)NCc1cc(N2CCOCC2)ncn1` | -45.64% | 18.98% | 15.88% |

For reference, 6 entries once more:

CCc1ccc(CN2CCN(c3cccc(OC)c3)C(=O)C2)nc1 read Mtb heat-shock: 13.55%; Mtb growth Cornell: 10.43%; LdMetRS: 16.34%.
O=C(c1cc2c(F)cccc2[nH]1)N1CCC(Nc2cccnn2)CC1 read Mtb heat-shock: -10.78%; LdMetRS: 15.64%.
CCc1nc(C(=O)N2CCOCC2CC(=O)c2ccccc2)c[nH]1 (stereo not given) read Mtb heat-shock: -36.48%; Mtb growth Cornell: 20.59%; LdMetRS: 1.003%.
CC1(C)CN(S(=O)(=O)N2CCCC2)CC1c1ccccc1 (stereo not given) read Mtb heat-shock: 0.5105%; Mtb growth Cornell: -2.696%; LdMetRS: 5.025%.
Cn1c(=O)n(C)c2nc(Cl)c(CC(=O)c3ccccc3)n2c1=O read Mtb heat-shock: 2.05%; Mtb growth Cornell: 12.93%; LdMetRS: 10.22%.
c1cncc(CN2CC(Cc3nccc4cc[nH]c34)C2)c1 read Mtb heat-shock: -3.507%; Mtb growth Cornell: 30.98%; LdMetRS: 15.43%.